Measurements published in patent publication US20100021918A1, “METHOD FOR ASSAYING ACTION OF ANTITUMOR AGENT USING SPLICING DEFECTS AS INDEX” (Eisai R&D Management Co., Ltd., priority 2007, published 2010).
Further values from the same series stand in other lists.

Tested on: peripheral blood mononuclear cells (PBMC)
Experiment: Microarray analysis (3), dose-dependent intron expression in PBMC at 3, 10, 30 nM, Table 5
Format: cell-based, human
Experimental: PBMC was suspended in RPMI1640 medium (containing 10% FBS, penicillin, and streptomycin) to 5×10^6 cells/ml and 1 ml of the suspension was plated per well of a 24-well plate. Immediately, 111 μl of 10 times-concentrated (8E,12E,14E)-7-((4-cycloheptylpiperazin-1-yl)carbonyl)oxy-3,6,16,21-tetrahydroxy-6,10,12,16,20-pentamethyl-18,19-epoxytricosa-8,12,14-trien-11-olide was added to the well (six wells per each concentration tested). The cells were then cultured in an incubator with 5% carbon dioxide gas at 37° C. Three hours later, the supernatant was collected and centrifuged at 1500 rpm for five minutes. TRI reagent (SIGMA) (1 ml) was added to each well of the plate from which the supernatant was removed to harvest the cells, which was added to the centrifuged pellet to dissolve. RNA was purified in accordance with the protocol of TRI reagent. RNA was further purified using RNeasy (QIAGEN) and, in accordance with the protocol, DNaseI was added to the samples during the procedure. Absorbance at 260 nm was measured to quantify an amount of RNA.
Ribosomal RNA was removed from 1 μg of each total RNA of control cells (n=3) and cells with the treatment (n=3) using RiboMinus Human/Mouse Transcriptome Isolation Kit (Invitrogen). Single stranded cDNA synthesis, double stranded cDNA synthesis, cRNA synthesis, second single stranded cDNA synthesis, cDNA fragmentation, and cDNA labeling in order were carried out for total RNA from which ribosomal RNA was removed, using GeneChip Whole Transcript Sense Target Labeling and Control Reagents (Affymetrix) to make a cDNA probe. Subsequently, the cDNA probe was used for hybridization with Human Exon 1.0 ST Array (Affymetrix). The array was washed and stained, and luminescence intensity was measured by a scanner.
The expression level of the probe set and the gene was quantified by using Expression Console Ver. 1.0 (Affymetrix) with Summarization Method and Normalization Method being set to “Median polish as used in RMA” and “None”, respectively. The expression level of the probe was normalized with that of the gene.
Probe sets showing that the normalized change in the level expression of the probe set in the group with the treatment at 30 nM was more than 5 times; the expression level of the probe set and the gene in the group with the treatment at 30 nM was more than 100; and probe set annotation was “extended, full, free”, were picked out. Regression analysis was performed with the probe sets extracted for the control group, the group with the treatment at 3 nM, the group with the treatment at 10 nM, and the group with the treatment at 30 nM to determine a p and q value for the slope of regression formula. A gene containing the probe sets with the q value of less than 5% was determined as a candidate gene with increased expression level of the intron regions (Table 5).
In Table 5, for the gene evaluated, gene name (Gene Name), abbreviated name (Gene Symbol), accession number (Accession), alias name (Synonym), transcription cluster number in Human Exon 1.0 ST Array (Human Exon 1.0 ST Array Transcription Cluster ID), chromosome number (Chromosome), type of strand (Strand), start region (Start), stop region (Stop), and change in expression level per 1 nM (Fold Change/nM) were respectively shown.

## CCC(O)C(C)C1OC1CC(C)(O)/C=C/C=C(\C)C1OC(=O)CC(O)CCC(C)(O)C(OC(=O)N2CCN(C3CCCCCC3)CC2)/C=C/C1C (stereo not shown) [E7107, (8E,12E,14E)-7-((4-cycloheptylpiperazin-1-yl)carbonyl)oxy-3,6,16,21-tetrahydroxy-6,10,12,16,20-pentamethyl-18,19-epoxytricosa-8,12,14-trien-11-olide]
Introns of gene C1orf152 // PDE4DIP, regression over control, 3, 10, 30 nM
  Fold Change/nM: 1.06 nM⁻¹
Introns of gene C3orf58, regression over control, 3, 10, 30 nM
  Fold Change/nM: 1.04 nM⁻¹
Introns of gene C6orf166, regression over control, 3, 10, 30 nM
  Fold Change/nM: 1.04 nM⁻¹
Introns of gene C14orf32, regression over control, 3, 10, 30 nM
  Fold Change/nM: 1.06 nM⁻¹
Introns of gene C14orf118, regression over control, 3, 10, 30 nM
  Fold Change/nM: 1.05 nM⁻¹
Introns of gene C20orf112, regression over control, 3, 10, 30 nM
  Fold Change/nM: 1.04 nM⁻¹
Introns of gene CALM2, regression over control, 3, 10, 30 nM
  Fold Change/nM: 1.07 nM⁻¹
Introns of gene CANX, regression over control, 3, 10, 30 nM
  Fold Change/nM: 1.04 nM⁻¹
Introns of gene CASP3, regression over control, 3, 10, 30 nM
  Fold Change/nM: 1.04 nM⁻¹
Introns of gene CCDC47, regression over control, 3, 10, 30 nM
  Fold Change/nM: 1.04 nM⁻¹
Introns of gene CCDC100, regression over control, 3, 10, 30 nM
  Fold Change/nM: 1.04 nM⁻¹
Introns of gene CCDC131, regression over control, 3, 10, 30 nM
  Fold Change/nM: 1.07 nM⁻¹
Introns of gene CCL20, regression over control, 3, 10, 30 nM
  Fold Change/nM: 1.06 nM⁻¹
Introns of gene CCNL2 // AURKAIP1, regression over control, 3, 10, 30 nM
  Fold Change/nM: 1.05 nM⁻¹
Introns of gene CCT4, regression over control, 3, 10, 30 nM
  Fold Change/nM: 1.06 nM⁻¹
Introns of gene CD6, regression over control, 3, 10, 30 nM
  Fold Change/nM: 1.04 nM⁻¹
Introns of gene CD14, regression over control, 3, 10, 30 nM
  Fold Change/nM: 1.04 nM⁻¹
Introns of gene CDC40, regression over control, 3, 10, 30 nM
  Fold Change/nM: 1.04 nM⁻¹
Introns of gene CENPC1, regression over control, 3, 10, 30 nM
  Fold Change/nM: 1.06 nM⁻¹
Introns of gene CENTD1, regression over control, 3, 10, 30 nM
  Fold Change/nM: 1.05 nM⁻¹
Introns of gene CENTD2, regression over control, 3, 10, 30 nM
  Fold Change/nM: 1.04 nM⁻¹
Introns of gene CERK, regression over control, 3, 10, 30 nM
  Fold Change/nM: 1.07 nM⁻¹
Introns of gene CGI-09, regression over control, 3, 10, 30 nM
  Fold Change/nM: 1.04 nM⁻¹
Introns of gene CHD4, regression over control, 3, 10, 30 nM
  Fold Change/nM: 1.04 nM⁻¹
Introns of gene CLASP1, regression over control, 3, 10, 30 nM
  Fold Change/nM: 1.04 nM⁻¹
Introns of gene CLIC4 // ADD3, regression over control, 3, 10, 30 nM
  Fold Change/nM: 1.07 nM⁻¹
Introns of gene CLINT1, regression over control, 3, 10, 30 nM
  Fold Change/nM: 1.06 nM⁻¹
Introns of gene CLK1, regression over control, 3, 10, 30 nM
  Fold Change/nM: 1.04 nM⁻¹
Introns of gene CLK3, regression over control, 3, 10, 30 nM
  Fold Change/nM: 1.04 nM⁻¹
Introns of gene CMIP, regression over control, 3, 10, 30 nM
  Fold Change/nM: 1.04 nM⁻¹
Introns of gene CNP, regression over control, 3, 10, 30 nM
  Fold Change/nM: 1.04 nM⁻¹
Introns of gene COPB2, regression over control, 3, 10, 30 nM
  Fold Change/nM: 1.05 nM⁻¹
Introns of gene COPS2, regression over control, 3, 10, 30 nM
  Fold Change/nM: 1.07 nM⁻¹
Introns of gene CRSP2, regression over control, 3, 10, 30 nM
  Fold Change/nM: 1.06 nM⁻¹
Introns of gene CSK, regression over control, 3, 10, 30 nM
  Fold Change/nM: 1.04 nM⁻¹
Introns of gene CSNK2A1 // CSNK2A1P, regression over control, 3, 10, 30 nM
  Fold Change/nM: 1.04 nM⁻¹
Introns of gene DDX3X, regression over control, 3, 10, 30 nM
  Fold Change/nM: 1.06 nM⁻¹
Introns of gene DDX47 // APOLD1, regression over control, 3, 10, 30 nM
  Fold Change/nM: 1.04 nM⁻¹
Introns of gene DENND3, regression over control, 3, 10, 30 nM
  Fold Change/nM: 1.04 nM⁻¹
Introns of gene DMXL2, regression over control, 3, 10, 30 nM
  Fold Change/nM: 1.06 nM⁻¹
Introns of gene DNAJC1, regression over control, 3, 10, 30 nM
  Fold Change/nM: 1.04 nM⁻¹
Introns of gene DNAJC3, regression over control, 3, 10, 30 nM
  Fold Change/nM: 1.07 nM⁻¹
Introns of gene ECE1 // APBB2, regression over control, 3, 10, 30 nM
  Fold Change/nM: 1.06 nM⁻¹
Introns of gene EHD4, regression over control, 3, 10, 30 nM
  Fold Change/nM: 1.08 nM⁻¹
Introns of gene EIF3S7, regression over control, 3, 10, 30 nM
  Fold Change/nM: 1.04 nM⁻¹
Introns of gene EIF4A2, regression over control, 3, 10, 30 nM
  Fold Change/nM: 1.04 nM⁻¹
Introns of gene ERCC1, regression over control, 3, 10, 30 nM
  Fold Change/nM: 1.06 nM⁻¹
Introns of gene EREG, regression over control, 3, 10, 30 nM
  Fold Change/nM: 1.08 nM⁻¹
Introns of gene ETS2, regression over control, 3, 10, 30 nM
  Fold Change/nM: 1.06 nM⁻¹
Introns of gene EWSR1, regression over control, 3, 10, 30 nM
  Fold Change/nM: 1.04 nM⁻¹
Introns of gene FAM44A, regression over control, 3, 10, 30 nM
  Fold Change/nM: 1.04 nM⁻¹
Introns of gene FAM48A // FAM48B2, regression over control, 3, 10, 30 nM
  Fold Change/nM: 1.04 nM⁻¹
Introns of gene FAM89B, regression over control, 3, 10, 30 nM
  Fold Change/nM: 1.04 nM⁻¹
Introns of gene FAS, regression over control, 3, 10, 30 nM
  Fold Change/nM: 1.06 nM⁻¹
Introns of gene FAU, regression over control, 3, 10, 30 nM
  Fold Change/nM: 1.05 nM⁻¹
